This is an account of results in US20250002599A1.

By UniProt entry, the sequences of proteins in these tests, tags left out. Where a name states a change or a piece, a line headed by the entry shows the natural chain unless it says otherwise. Chains listed by the source or under a name are the forms on record and can include a tag or linker.
M4 (Q07011, form named): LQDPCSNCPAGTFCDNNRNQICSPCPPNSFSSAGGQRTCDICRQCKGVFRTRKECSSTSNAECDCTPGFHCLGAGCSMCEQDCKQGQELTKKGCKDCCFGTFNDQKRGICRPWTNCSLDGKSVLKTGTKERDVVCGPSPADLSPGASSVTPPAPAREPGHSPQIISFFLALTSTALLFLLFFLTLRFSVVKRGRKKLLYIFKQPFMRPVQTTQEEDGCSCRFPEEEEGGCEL
M3 (Q07011, form named): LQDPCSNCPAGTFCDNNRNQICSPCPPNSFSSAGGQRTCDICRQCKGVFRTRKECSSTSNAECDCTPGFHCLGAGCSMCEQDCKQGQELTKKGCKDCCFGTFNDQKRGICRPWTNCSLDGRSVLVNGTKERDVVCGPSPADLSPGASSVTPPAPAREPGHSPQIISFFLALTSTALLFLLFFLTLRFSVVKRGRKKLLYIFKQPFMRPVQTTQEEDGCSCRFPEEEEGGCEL

Results are given in words; binding and its absence hold for the method and conditions named. Some entries that bind do so weakly or less than the wild type.

One test has as its target M4 (Homo sapiens) (UniProt Q07011). Kind of test: flow cytometry on HEK293T cells transiently transfected with human CD137 mutant M4; one antibody concentration, not given.
The next test has as its target M3 (Homo sapiens) (UniProt Q07011). Kind of test: flow cytometry on HEK293T cells transiently transfected with human CD137 mutant M3; one antibody concentration, not given.

B1: 1923Ab4 (antibody, V domains shown)
VH: QVQLVESGGGVVQPGRSLRLSCAASGFTFSNYGMHWVRQAPGKGLEWVAIIWYDGINKYYADSVKGRFTISRDNSKNTLYLQMNSLKAEDTAVYYCARDQDYDILTGYYKEDYFDFWGQGTLVTVSS
VL: SYELTQPPSVSVSPGQTARITCSGDALPKKYAYWYQQKSGQAPVLVIYEDSKRPSGIPERFSGSSSGTMATLTISGAQVEDEADYYCYSTDSSGNRVFGGGTKLTVL
For B1, the binding result with M4 (Homo sapiens) and in the test with M3 (Homo sapiens) was “binds” in each case.
